± gives the standard deviation of the averaged measurements. The list shows a part of the results.
Compound: Nc1nc2c(ncn2[C@@H]2O[C@H](COP(=O)(O)OP(=O)(O)OP(=O)(O)O)[C@@H](O)[C@H]2O)c(=O)[nH]1 [guanosine triphosphate]
Test: NP40-soluble protein abundance relative to vehicle (solubility fold change) (ratio); higher = more soluble protein in presence of GTP
Method in brief: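 Across three independent experiments, values are fold changes against the detergent-processed vehicle for each replicate, based on vsn-normalised intensities. The samples were Jurkat crude lysate treated with eight concentrations (0.1 to 10 mM) for 10 min at room temperature and then 3 min at 37 °C. Lysate was solubilised with 0.8% NP40 and benzonase, ultracentrifuged, and the supernatant analysed by TMT-labelled LC-MS/MS.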

Chains of the proteins cited; added tags and fusions are not shown. Lines headed by an entry give the natural chain unless they say otherwise; changes in a name come on top.
UniProt Q8NDV3: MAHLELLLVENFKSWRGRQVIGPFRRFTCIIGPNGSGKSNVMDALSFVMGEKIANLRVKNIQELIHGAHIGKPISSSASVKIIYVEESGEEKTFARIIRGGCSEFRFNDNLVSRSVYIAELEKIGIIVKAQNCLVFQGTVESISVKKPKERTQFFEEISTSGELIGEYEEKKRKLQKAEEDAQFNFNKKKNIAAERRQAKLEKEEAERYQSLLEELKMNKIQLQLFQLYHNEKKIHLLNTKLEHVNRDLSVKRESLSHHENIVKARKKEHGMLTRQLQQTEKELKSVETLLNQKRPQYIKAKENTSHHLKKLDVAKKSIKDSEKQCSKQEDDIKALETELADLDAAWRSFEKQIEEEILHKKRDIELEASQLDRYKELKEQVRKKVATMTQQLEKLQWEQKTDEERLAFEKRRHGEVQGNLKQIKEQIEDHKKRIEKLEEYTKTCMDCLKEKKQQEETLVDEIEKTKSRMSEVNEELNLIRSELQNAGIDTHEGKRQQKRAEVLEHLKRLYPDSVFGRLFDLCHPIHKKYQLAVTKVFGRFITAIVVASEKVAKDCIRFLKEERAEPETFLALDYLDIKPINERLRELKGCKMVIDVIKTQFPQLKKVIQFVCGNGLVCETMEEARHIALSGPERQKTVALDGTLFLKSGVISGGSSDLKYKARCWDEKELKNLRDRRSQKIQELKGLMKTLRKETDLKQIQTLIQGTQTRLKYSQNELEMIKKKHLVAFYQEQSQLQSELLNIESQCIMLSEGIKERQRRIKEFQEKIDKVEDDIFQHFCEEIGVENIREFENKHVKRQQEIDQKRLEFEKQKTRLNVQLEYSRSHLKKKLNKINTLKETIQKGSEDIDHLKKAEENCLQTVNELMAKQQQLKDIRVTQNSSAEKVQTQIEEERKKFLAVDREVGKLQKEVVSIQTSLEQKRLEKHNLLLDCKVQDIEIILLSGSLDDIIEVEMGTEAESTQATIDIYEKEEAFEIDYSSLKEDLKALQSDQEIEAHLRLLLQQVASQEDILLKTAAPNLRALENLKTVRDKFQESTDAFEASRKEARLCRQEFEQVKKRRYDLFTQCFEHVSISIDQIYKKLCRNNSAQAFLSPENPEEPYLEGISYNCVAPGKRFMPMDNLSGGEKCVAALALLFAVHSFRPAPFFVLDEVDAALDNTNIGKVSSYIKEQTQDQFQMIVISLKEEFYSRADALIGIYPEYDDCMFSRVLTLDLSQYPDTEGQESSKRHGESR
UniProt Q8NF37: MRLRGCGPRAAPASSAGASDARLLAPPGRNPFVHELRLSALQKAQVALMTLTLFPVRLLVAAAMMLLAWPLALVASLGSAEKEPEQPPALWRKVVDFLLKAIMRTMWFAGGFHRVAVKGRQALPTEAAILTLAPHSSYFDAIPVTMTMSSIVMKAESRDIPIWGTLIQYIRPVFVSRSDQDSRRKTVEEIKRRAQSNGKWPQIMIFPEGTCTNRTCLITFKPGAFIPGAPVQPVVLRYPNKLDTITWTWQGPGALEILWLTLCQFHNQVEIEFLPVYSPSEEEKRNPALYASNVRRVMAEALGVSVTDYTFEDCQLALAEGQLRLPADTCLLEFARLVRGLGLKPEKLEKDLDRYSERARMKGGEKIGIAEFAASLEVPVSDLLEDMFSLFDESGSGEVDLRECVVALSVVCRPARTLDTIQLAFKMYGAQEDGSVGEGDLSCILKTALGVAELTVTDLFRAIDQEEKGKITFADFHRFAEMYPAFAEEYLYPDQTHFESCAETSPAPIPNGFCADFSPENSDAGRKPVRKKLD
UniProt Q8IYS2: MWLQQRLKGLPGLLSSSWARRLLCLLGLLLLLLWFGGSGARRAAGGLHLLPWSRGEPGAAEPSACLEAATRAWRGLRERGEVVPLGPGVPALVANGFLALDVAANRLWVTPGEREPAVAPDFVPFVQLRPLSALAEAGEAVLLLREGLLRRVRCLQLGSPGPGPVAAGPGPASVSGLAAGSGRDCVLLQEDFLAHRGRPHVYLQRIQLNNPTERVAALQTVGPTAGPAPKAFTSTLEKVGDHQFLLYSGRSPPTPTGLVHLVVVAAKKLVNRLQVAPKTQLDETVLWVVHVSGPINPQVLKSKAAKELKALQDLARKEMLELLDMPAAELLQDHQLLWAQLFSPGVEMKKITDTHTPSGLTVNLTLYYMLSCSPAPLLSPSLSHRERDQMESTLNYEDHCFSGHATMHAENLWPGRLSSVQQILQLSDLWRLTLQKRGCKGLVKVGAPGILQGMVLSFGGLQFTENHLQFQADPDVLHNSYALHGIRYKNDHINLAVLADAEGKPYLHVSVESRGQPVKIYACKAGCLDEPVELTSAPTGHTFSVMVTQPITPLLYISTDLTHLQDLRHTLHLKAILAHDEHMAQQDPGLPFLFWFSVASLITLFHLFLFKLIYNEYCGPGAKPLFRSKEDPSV
UniProt Q8N4Q0: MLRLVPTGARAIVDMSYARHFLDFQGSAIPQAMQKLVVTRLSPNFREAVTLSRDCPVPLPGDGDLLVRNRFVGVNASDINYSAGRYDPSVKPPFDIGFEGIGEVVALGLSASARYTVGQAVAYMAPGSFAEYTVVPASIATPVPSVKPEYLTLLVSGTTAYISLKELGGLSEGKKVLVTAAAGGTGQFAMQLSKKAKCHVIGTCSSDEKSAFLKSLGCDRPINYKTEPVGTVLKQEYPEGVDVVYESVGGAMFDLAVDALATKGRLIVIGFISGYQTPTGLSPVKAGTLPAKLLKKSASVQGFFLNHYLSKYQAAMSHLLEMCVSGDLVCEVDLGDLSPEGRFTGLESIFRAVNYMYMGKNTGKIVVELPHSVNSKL
UniProt Q8NC60: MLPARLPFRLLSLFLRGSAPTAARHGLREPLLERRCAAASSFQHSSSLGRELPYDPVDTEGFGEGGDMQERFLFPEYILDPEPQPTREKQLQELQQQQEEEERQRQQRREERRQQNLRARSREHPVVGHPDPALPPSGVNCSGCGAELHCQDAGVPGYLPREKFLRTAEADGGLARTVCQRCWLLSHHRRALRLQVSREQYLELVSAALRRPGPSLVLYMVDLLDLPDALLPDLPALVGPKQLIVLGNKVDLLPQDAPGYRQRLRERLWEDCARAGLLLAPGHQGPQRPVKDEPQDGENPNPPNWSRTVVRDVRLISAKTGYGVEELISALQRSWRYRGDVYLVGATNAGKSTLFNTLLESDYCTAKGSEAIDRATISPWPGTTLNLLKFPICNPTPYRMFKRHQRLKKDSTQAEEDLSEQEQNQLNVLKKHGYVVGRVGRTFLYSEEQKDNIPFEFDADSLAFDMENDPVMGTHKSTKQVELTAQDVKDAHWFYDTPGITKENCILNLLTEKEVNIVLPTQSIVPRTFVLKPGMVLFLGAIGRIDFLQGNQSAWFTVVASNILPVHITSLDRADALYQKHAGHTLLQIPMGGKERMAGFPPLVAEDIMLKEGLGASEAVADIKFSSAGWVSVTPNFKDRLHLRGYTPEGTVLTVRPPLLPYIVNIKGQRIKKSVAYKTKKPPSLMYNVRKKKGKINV
UniProt Q86Y37: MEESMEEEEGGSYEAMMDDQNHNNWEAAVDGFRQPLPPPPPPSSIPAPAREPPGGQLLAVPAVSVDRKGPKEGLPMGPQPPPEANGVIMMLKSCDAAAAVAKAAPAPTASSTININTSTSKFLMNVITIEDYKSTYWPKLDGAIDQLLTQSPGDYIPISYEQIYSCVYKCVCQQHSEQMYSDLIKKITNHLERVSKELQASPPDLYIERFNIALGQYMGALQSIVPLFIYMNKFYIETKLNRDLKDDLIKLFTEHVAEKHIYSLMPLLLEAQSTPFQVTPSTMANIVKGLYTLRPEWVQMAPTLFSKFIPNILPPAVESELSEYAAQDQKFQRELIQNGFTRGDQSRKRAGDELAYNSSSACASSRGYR
UniProt Q8NHV1: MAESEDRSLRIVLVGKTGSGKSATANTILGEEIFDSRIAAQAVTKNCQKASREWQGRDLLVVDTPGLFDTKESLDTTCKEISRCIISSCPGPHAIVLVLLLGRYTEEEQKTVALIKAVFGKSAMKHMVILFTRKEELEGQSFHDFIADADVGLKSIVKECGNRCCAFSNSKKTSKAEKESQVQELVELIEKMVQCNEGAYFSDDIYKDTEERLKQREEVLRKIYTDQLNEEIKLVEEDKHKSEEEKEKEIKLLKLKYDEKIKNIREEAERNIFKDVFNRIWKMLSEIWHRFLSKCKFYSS
UniProt Q8NCN4: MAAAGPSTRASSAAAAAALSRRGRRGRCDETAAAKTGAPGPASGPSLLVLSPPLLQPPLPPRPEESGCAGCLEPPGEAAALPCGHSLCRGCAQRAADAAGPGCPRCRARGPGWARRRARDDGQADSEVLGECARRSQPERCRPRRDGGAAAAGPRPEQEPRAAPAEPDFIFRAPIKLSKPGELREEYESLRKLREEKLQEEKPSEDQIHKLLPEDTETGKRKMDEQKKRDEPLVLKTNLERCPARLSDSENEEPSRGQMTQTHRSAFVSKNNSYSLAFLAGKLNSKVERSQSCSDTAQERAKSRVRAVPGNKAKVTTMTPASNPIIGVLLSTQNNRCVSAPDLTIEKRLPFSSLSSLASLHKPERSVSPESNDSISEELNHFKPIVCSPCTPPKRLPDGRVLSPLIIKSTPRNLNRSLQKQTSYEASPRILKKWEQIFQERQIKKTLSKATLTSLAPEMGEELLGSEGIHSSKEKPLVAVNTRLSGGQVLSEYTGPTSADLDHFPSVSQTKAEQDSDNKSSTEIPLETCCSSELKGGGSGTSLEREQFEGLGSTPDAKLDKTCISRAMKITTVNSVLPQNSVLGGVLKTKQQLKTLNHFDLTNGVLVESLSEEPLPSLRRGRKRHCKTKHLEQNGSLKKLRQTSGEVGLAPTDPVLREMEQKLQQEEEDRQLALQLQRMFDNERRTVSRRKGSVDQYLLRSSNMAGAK
UniProt Q8IYJ3: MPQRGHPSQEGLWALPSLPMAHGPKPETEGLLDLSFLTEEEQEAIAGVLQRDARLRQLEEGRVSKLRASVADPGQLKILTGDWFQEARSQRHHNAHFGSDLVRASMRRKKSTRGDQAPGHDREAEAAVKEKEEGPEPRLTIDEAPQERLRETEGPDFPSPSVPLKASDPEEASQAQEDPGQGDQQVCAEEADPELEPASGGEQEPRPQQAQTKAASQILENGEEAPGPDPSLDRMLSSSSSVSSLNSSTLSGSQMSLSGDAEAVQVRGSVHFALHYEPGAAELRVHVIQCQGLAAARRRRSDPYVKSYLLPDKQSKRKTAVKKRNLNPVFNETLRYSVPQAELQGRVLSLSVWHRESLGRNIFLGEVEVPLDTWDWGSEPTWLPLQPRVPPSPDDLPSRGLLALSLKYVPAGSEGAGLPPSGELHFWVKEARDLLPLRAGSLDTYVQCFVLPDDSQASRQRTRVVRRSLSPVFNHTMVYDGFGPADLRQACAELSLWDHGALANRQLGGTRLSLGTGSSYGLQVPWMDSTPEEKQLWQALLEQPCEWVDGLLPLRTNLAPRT
UniProt Q8TEA7: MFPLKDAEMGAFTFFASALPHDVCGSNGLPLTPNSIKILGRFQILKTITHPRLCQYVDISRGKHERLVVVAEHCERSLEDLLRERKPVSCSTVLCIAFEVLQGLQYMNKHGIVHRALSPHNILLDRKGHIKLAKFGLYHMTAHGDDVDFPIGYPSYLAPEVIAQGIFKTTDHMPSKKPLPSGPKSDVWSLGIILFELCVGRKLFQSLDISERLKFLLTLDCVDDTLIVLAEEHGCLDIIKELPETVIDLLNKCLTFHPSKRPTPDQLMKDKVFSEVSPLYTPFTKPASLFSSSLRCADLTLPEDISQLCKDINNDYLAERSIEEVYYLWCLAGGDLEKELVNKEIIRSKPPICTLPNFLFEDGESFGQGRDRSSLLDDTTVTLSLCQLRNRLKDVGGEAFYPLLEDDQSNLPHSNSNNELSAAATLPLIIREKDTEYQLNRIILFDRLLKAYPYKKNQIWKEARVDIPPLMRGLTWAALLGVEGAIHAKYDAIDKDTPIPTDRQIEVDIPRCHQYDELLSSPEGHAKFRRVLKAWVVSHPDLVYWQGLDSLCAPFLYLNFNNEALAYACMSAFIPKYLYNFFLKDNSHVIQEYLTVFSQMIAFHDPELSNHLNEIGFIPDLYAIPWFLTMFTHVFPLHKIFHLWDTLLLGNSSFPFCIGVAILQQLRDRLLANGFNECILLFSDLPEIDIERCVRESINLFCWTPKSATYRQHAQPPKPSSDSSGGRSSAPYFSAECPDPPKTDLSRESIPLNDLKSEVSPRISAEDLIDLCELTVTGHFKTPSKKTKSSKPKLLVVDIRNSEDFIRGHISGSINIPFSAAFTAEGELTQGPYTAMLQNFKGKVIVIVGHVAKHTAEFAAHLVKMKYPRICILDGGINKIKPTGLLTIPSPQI

Target	NP40-soluble protein abundance (concentration: 0.1mM)	NP40-soluble protein abundance (concentration: 0.5mM)	NP40-soluble protein abundance (concentration: 1mM)	NP40-soluble protein abundance (concentration: 2mM)	NP40-soluble protein abundance (concentration: 4mM)	NP40-soluble protein abundance (concentration: 6mM)	NP40-soluble protein abundance (concentration: 8mM)	NP40-soluble protein abundance (concentration: 10mM)
UniProt Q8NB15-2	1.04 ± 0.17	1.03 ± 0.12	1.03 ± 0.15	1.04 ± 0.19	0.989 ± 0.13	0.949 ± 0.13	1 ± 0.16	0.965 ± 0.17
UniProt Q8TEP8-3	1.01 ± 0.1	1.038 ± 0.0016	1.09 ± 0.019	1.1 ± 0.039	1.07 ± 0.018	1.06 ± 0.027	1.07 ± 0.059	1.03 ± 0.11
UniProt Q8NDV3 and related entries	0.926 ± 0.073	1.06 ± 0.053	1 ± 0.092	0.958 ± 0.11	0.989 ± 0.14	1.02 ± 0.1	1.03 ± 0.11	0.959 ± 0.12
UniProt Q8NBJ5	1.026 ± 0.0027	1.02 ± 0.021	0.922 ± 0.018	0.894 ± 0.033	0.909 ± 0.026	0.908 ± 0.015	0.903 ± 0.023	0.862 ± 0.055
UniProt Q8TDJ6 and related entries	1.04 ± 0.039	1.17 ± 0.13	1.09 ± 0.11	1.19 ± 0.14	1.19 ± 0.12	1.13 ± 0.19	1.23 ± 0.19	1.18 ± 0.17
LPCAT1 (UniProt Q8NF37)	1.06 ± 0.098	1.05 ± 0.13	1 ± 0.098	0.971 ± 0.065	0.966 ± 0.079	1.01 ± 0.13	0.999 ± 0.13	0.968 ± 0.12
UniProt Q8IYS2 and related entries	1.14 ± 0.035	1.08 ± 0.065	1 ± 0.031	1.03 ± 0.087	0.959 ± 0.062	0.997 ± 0.069	0.996 ± 0.013	0.945 ± 0.021
LRRC8A (UniProt Q8IWT6)	1.08 ± 0.087	1.1 ± 0.084	1.08 ± 0.024	1.18 ± 0.024	1.15 ± 0.081	1.15 ± 0.068	1.27 ± 0.15	1.26 ± 0.097
KRI1 (UniProt Q8N9T8)	0.988 ± 0.043	0.975 ± 0.062	1.04 ± 0.045	1.03 ± 0.096	1.08 ± 0.064	1.13 ± 0.071	1.23 ± 0.085	1.23 ± 0.051
UniProt Q8IW45 and related entries	1.01 ± 0.071	0.978 ± 0.074	0.985 ± 0.038	0.945 ± 0.021	0.969 ± 0.013	0.915 ± 0.045	0.954 ± 0.077	0.91 ± 0.035
DCUN1D3 (UniProt Q8IWE4)	0.968 ± 0.12	0.987 ± 0.099	1.01 ± 0.14	0.951 ± 0.1	0.937 ± 0.11	0.95 ± 0.1	0.919 ± 0.12	0.861 ± 0.12
ZADH2 (UniProt Q8N4Q0)	0.997 ± 0.043	1.01 ± 0.091	0.951 ± 0.02	0.963 ± 0.056	0.932 ± 0.041	0.9 ± 0.041	0.947 ± 0.084	0.887 ± 0.048
MLKL (UniProt Q8NB16)	0.98 ± 0.044	0.962 ± 0.052	0.896 ± 0.062	0.908 ± 0.035	0.873 ± 0.047	0.874 ± 0.032	0.868 ± 0.045	0.837 ± 0.024
UniProt Q8NC60	1 ± 0.022	1.05 ± 0.022	0.955 ± 0.048	0.884 ± 0.078	0.863 ± 0.067	0.907 ± 0.048	0.932 ± 0.024	0.861 ± 0.041
UniProt Q86Y37 and related entries	0.963 ± 0.063	0.923 ± 0.074	0.9527 ± 0.0029	0.9274 ± 0.0067	0.907 ± 0.091	0.905 ± 0.048	0.87 ± 0.057	0.889 ± 0.054
GIMAP7 (UniProt Q8NHV1)	1 ± 0.026	1.03 ± 0.03	1.06 ± 0.16	1.02 ± 0.085	1.08 ± 0.16	1.07 ± 0.18	1.07 ± 0.19	1.06 ± 0.22
RNF169 (UniProt Q8NCN4)	1.03 ± 0.026	1.12 ± 0.11	1.15 ± 0.11	1.25 ± 0.12	1.44 ± 0.19	1.36 ± 0.083	1.51 ± 0.19	1.52 ± 0.15
UniProt Q8IYJ3 and related entries	1.05 ± 0.041	1.02 ± 0.021	1.02 ± 0.07	1.03 ± 0.071	1.01 ± 0.13	1.04 ± 0.12	1.06 ± 0.19	1.06 ± 0.19
UniProt Q8TCC3 and related entries	1.04 ± 0.22	1.1 ± 0.26	1.52 ± 0.56	1.67 ± 0.58	1.71 ± 0.63	1.7 ± 0.61	1.66 ± 0.67	1.67 ± 0.71
GALNT12 (UniProt Q8IXK2)	1.08 ± 0.075	1.05 ± 0.092	0.982 ± 0.086	0.99 ± 0.1	0.976 ± 0.06	0.938 ± 0.063	0.949 ± 0.06	0.889 ± 0.11
UniProt Q8TEH3 and related entries	1.12 ± 0.2	1.13 ± 0.22	0.998 ± 0.17	1.03 ± 0.23	0.963 ± 0.2	0.981 ± 0.17	0.914 ± 0.17	0.96 ± 0.2
UniProt Q8TEA7 and related entries	1.06 ± 0.13	1.07 ± 0.15	0.861 ± 0.12	0.968 ± 0.094	0.916 ± 0.088	0.913 ± 0.084	0.817 ± 0.081	0.833 ± 0.038

Taken from above:
NP40-soluble protein abundance (concentration: 2mM), KRI1 (UniProt Q8N9T8) is entered as 1.03 ± 0.096
NP40-soluble protein abundance (concentration: 0.1mM), DCUN1D3 (UniProt Q8IWE4) is entered as 0.968 ± 0.12
